This note sets out measurements from PubChem BioAssay AID662 (National Center for Advancing Translational Sciences (NCATS), 2007).

“And” between values parts separate entries of the source, which are not always exact repeats. Equal values may be shown once. The list shows a part of the results. The main result of the screen is listed elsewhere. These columns were measured beside it and carry no call. Most of these compounds were active or inconclusive in the main read-out, so they are no random draw. The note in brackets gives the kind of curve behind each potency; many fits are weak.

A word on the AC50: it is the concentration at which the activity in the assay is half-maximal.

This assay in a line: Cell signaling CRE-BLA (Fsk stim). The settings on record: CHO CRE-bla reporter (cAMP response element driving beta-lactamase), forskolin EC10, beta-lactamase ratio; measured here: 460 nm blue channel. In a few lines: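 The 460nm/530nm emission ratio after CCF4 loading defined %Activity, from which AC50 values were obtained. CRE-bla CHO cells received compound dilution series together with an EC10 level of NKH 477 for 3 hours at 37 degrees Celsius.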
With `COc1ccc(N/C=C2\CCOC2=O)cc1`, the AC50 is 0.398 µM [rising, full curve]. In the case of `COCCOc1ccc(C(F)(F)F)cc1Nc1nc2ccccc2o1`, the AC50 is 10 µM [rising, partial curve].

Regarding `COc1ccccc1CNC(=O)C1CCN(S(C)(=O)=O)CC1`, the AC50 is 0.00398 µM [falling, full curve, poor fit]. For `CCc1c2c(nc3c(C(C)C)cccc13)-c1cccc(=O)n1C2`, the AC50 was 10 µM [rising, partial curve]. In the case of `CC(C)CCn1c(CN(C)Cc2ccccc2)nc2c1c(=O)n(C)c(=O)n2C`, the AC50 was 0.01 µM [falling, full curve, poor fit]. In the case of `c1ccc2[nH]c(SCc3ccc(-c4nnco4)cc3)nc2c1`, the AC50 was 15.8 µM [rising, single point]. Then `CCN1/C(=C/C(=O)c2ccco2)Sc2ccccc21`, with 10 µM [rising, partial curve]. Take `COc1cc2nc3c(c([Si](C)(C)C(C)(C)C)c2cc1OC)Cn1c-3cccc1=O`: the AC50 is 12.6 µM [rising, partial curve].

With `CC1CCCCC1n1c(=S)[nH]c2ccccc2c1=O` (configuration not stated), the concentration at half-maximal activity (AC50) is 12.6 µM [rising, partial curve]. For the compound `COCCn1c(=O)c(CCc2ccccc2)nc2cnc(N(C)C)nc21`, the AC50 was 12.6 µM [rising, partial curve]. The value for `COc1ccccc1NC(=O)c1ccccc1NS(C)(=O)=O` was 1.26 µM [rising, full curve]; that for `CCCCc1ccc(NS(=O)(=O)N(C)C)cc1` was 0.0251 µM [rising, full curve]; that for `CCNC(=O)c1ccccc1NC(=O)c1cccc(S(=O)(=O)N2CCC(C)CC2)c1` was 12.6 µM [rising, partial curve]. The value for `Cc1ccc(C2CC(c3ccccc3OC(F)F)Nc3ncnn32)cc1` (configuration not stated) was 15.8 µM [rising, single point]; that for `COc1cc(C(c2sc3nc(C)nn3c2O)N2CCc3ccccc3C2)cc(OC)c1OC` (configuration not stated) was 12.6 µM [rising, partial curve]; that for `CN1CCCC[C@@H]1CCN1c2ccccc2Sc2ccc(S(C)=O)cc21` (some centres not stated) was 0.0316 µM [rising, full curve, poor fit]. The value for `CCC(C(=O)N1CCc2cc(OC)c(OC)cc2C1)c1ccccc1` (configuration not stated) was 10 µM [falling, partial curve, poor fit]; that for `Cc1nccn1-c1c2c(c(C#N)c3nc4ccccc4n13)CCC2` was 3.16 µM [rising, partial curve]; that for `CCN(CC)C(=O)c1sc2nc(-c3ccccn3)[nH]c(=O)c2c1C` was 10 µM [rising, partial curve]. In the case of `CCn1c(SCC(=O)N2CCCc3ccccc32)nc2ccccc2c1=O`, the AC50 is 12.6 µM [rising, single point].

As for `C=C1C(=O)O[C@@H]2[C@@H]1CC/C(C)=C\CC[C@@]1(C)O[C@H]21`, the AC50 is 15.8 µM [falling, partial curve] and 5.01 µM [falling, partial curve]. The value for `c1ccc(-c2nc(NC3CC3)nc(-n3ccnc3)n2)cc1` was 0.251 µM [rising, full curve]; that for `N#CC1=C(N)SC(N)=C(C#N)C1c1cccc(Oc2ccccc2)c1` was 25.1 µM [falling, single point]; that for `Cc1ccc(C)c(N2CCN(C(=O)CCCn3c(=S)[nH]c4cc5c(cc4c3=O)OCO5)CC2)c1` was 1.58 µM [rising, full curve]. Regarding `O=C(CS(=O)(=O)Cc1ccccc1)N1CCN(Cc2ccc3c(c2)OCO3)CC1`, the concentration at half-maximal activity (AC50) is 3.98 µM [falling, partial curve, poor fit].

For the compound `CCC/C(O)=C1\C(=O)CC(C)(C)CC1=Nc1ccc(OC)cc1OC`, the AC50 is 3.16 µM [rising, partial curve]. As for `COc1cc(C(c2nnnn2C(C)(C)C)N2CCN(c3nc4ccccc4s3)CC2)ccc1O` (configuration not stated), the AC50 is 7.94 µM [falling, partial curve]. As for `CCCC(=O)NCCc1cc2cc(C)c(C)cc2[nH]c1=O`, the AC50 is 2.51 µM [rising, single point]. In the case of `Cc1cc(N2CCN(c3ccccc3)CC2)nc(-n2nc(C)cc2C)n1`, the concentration at half-maximal activity (AC50) is 12.6 µM [rising, partial curve]. The value for `Cc1nnc(SCCn2c(N3CC(C)CC(C)C3)nc3c2c(=O)[nH]c(=O)n3C)s1` (configuration not stated) was 12.6 µM [rising, single point].

As to `CCOC(=O)C1Cn2c(nc3c(c2=O)C(C)(CC)Cc2ccccc2-3)S1` (configuration not stated), the AC50 is 12.6 µM [rising, single point]. Take `O=C(c1cccc(-c2nnc(-c3ccccc3)o2)c1)N1CCCCC1`: the concentration at half-maximal activity (AC50) was 12.6 µM [rising, partial curve, poor fit]. Then `CC(=O)Nc1cccc(NC(=O)CSc2ncc(-c3ccc(Cl)cc3)n2Cc2ccco2)c1`, with 31.6 µM [falling, single point]. With `Cc1nc2ncnn2c(C)c1CCC(=O)N1CCOCC1`, the half-maximal activity concentration (AC50) was 5.01 µM [falling, partial curve]. The value for `CCNc1ncc2nc(C)c(=O)n(Cc3ccc(F)cc3)c2n1` was 7.94 µM [rising, partial curve]. With `O=C(Nc1ccccc1C(F)(F)F)C1CC(=O)N(c2ccccc2F)C1` (configuration not stated), the AC50 is 2.51 µM [falling, single point]. For `O=C(Nc1ccc2c(c1)OCCO2)NC1CCCCC1`, the concentration at half-maximal activity (AC50) is 0.02 µM [rising, full curve, poor fit]. Take `CCOC(=O)c1sc(-c2ccccc2)cc1NC(=O)CSc1nnnn1C`: the AC50 was 10 µM [rising, partial curve].

In the case of `OC(COc1cccc2ccccc12)CN1CCN(c2ccccn2)CC1` (configuration not stated), the half-maximal activity concentration (AC50) was 0.1 µM [falling, full curve, poor fit]. Consider `CCCn1c(-c2ccc(F)cc2)nc2c(NCCN3CCSCC3)nc(C)nc21`, for which the AC50 is 3.16 µM [rising, full curve]. The value for `CC(C)NC(=O)N1CCC2(CC1)CCN(C(=O)c1ccco1)CC2` was 5.01 µM [falling, single point]; that for `COC(=O)C1=C(C)NC(C)=C(C(=O)OC)C1c1ccc(N(C)C)cc1` was 0.398 µM [falling, partial curve]. Then `CCSc1nc2c(cnn2-c2ccc(C)cc2)c(=O)[nH]1`, with 6.31 µM [rising, partial curve]. Then `COC(=O)c1c[nH]n2c(=O)c(Cc3ccc(F)cc3Cl)c(C)nc12`, with 25.1 µM [rising, single point].

`OC(CN1CCOCC1)CN1CCOCC1`: the AC50 is 10 µM [falling, partial curve]. The value for `CCOc1ccc(N(CC(=O)Nc2ccc3c(c2)OCCO3)S(=O)(=O)c2c(C)noc2C)cc1` was 10 µM [falling, single point]; that for `Cc1ccc(C)c2[nH]c(=O)c(CCNC(=O)c3ccc(Br)o3)cc12` was 5.01 µM [rising, partial curve]. Consider `CC(C)c1nc2oc3c(NCC4CCCO4)ncnc3c2c2c1COC(C)(C)C2` (configuration not stated), for which the concentration at half-maximal activity (AC50) was 1 µM [rising, full curve].

With `CCOC(=O)c1ccccc1NC(=O)CSc1nc2ccccc2n1CC(=O)N1CCCC1`, the AC50 is 2 µM [rising, partial curve]. Then `COc1ccc(-c2nc(C#N)c(NCC3CCCO3)o2)cc1OC` (configuration not stated), with 10 µM [rising, partial curve].

Take `CCCn1c(SCC(=O)N2CCCC2)nc2c1c(=O)n(C)c(=O)n2C`: the AC50 is 10 µM [rising, partial curve]. As for `CCCn1c(=O)c(C(=O)NCc2cccnc2)c(O)c2ccccc21`, the AC50 is 3.16 µM [rising, full curve]. With `O=C(Nc1ccc(-c2cn3ccsc3n2)cc1)c1ccc(F)c(S(=O)(=O)N2CCOCC2)c1`, the AC50 is 3.16 µM [rising, full curve]. `Clc1ccccc1Cn1nnc2c(NCC3CC3)ncnc21`: the AC50 is 10 µM [rising, partial curve].

For `CCn1c(CCC(=O)Nc2cc(F)ccc2C)nc2cc(S(=O)(=O)N(C)C)ccc21`, the AC50 was 12.6 µM [rising, single point]. Then `COc1ccccc1CNc1ccnc(-c2c(C)noc2C)n1`, with 12.6 µM [rising, single point]; and `CCOc1ccc2[nH]c(O)c(NC(C)=O)c2c1`, with 3.16 µM [falling, partial curve]. The value for `Cc1nc2ccc(NC(=O)N3CCSCC3)cc2nc1C` was 10 µM [rising, partial curve]; that for `Cc1nc(C)c(C(=O)C2=C(O)C(=O)N(CCN3CCOCC3)C2c2cccs2)s1` (configuration not stated) was 0.00316 µM [falling, full curve, poor fit]. As for `COC(=O)c1ccc2c(c1)NC(=O)C(N1CCOCC1)S2` (configuration not stated), the AC50 is 0.0316 µM [falling, full curve, poor fit].

As to `O=C(c1ccco1)c1nnn(Cc2ccccc2)c1-c1ccccc1`, the AC50 is 20 µM [falling, single point].

Consider `N#CC1=C(N)Oc2c(oc(CO)cc2=O)C1c1cccs1` (configuration not stated), for which the half-maximal activity concentration (AC50) is 5.01 µM [falling, single point]. Then `COc1ccc2[nH]c(=O)c(C(c3nnnn3CC3CCCO3)N3CCc4ccccc4C3)cc2c1` (configuration not stated), with 20 µM [rising, single point]. As for `CCOC(=O)N1CCN(C(=O)c2cn(CC)c3ccc(S(=O)(=O)N4CCCC4)cc3c2=O)CC1`, the AC50 was 25.1 µM [rising, single point].

For `CC(=O)Oc1ccccc1C(=O)Oc1ccc(/C=N/n2cnnc2)cc1`, the AC50 is 10 µM [falling, partial curve]. As for `CCNc1ncc2nc(-c3cccc(C#N)c3)c(=O)n(Cc3cccc(OC)c3)c2n1`, the AC50 is 0.251 µM [rising, full curve].

For the compound `O=S(=O)(NCCc1cn2ccccc2n1)c1ccc(F)c(C(F)(F)F)c1`, the AC50 was 25.1 µM [falling, single point].
